Results: doi:10.1101/2024.08.15.608058
No constants are given. Whether binding was seen depends on the method and setting. In cells and extracts the contact can be indirect. Some results given as binding are weak or reduced against the parent protein; the word gives no strength.

Amino acid sequences for entries named in this document (tags omitted).
UniProt Q5TEA3: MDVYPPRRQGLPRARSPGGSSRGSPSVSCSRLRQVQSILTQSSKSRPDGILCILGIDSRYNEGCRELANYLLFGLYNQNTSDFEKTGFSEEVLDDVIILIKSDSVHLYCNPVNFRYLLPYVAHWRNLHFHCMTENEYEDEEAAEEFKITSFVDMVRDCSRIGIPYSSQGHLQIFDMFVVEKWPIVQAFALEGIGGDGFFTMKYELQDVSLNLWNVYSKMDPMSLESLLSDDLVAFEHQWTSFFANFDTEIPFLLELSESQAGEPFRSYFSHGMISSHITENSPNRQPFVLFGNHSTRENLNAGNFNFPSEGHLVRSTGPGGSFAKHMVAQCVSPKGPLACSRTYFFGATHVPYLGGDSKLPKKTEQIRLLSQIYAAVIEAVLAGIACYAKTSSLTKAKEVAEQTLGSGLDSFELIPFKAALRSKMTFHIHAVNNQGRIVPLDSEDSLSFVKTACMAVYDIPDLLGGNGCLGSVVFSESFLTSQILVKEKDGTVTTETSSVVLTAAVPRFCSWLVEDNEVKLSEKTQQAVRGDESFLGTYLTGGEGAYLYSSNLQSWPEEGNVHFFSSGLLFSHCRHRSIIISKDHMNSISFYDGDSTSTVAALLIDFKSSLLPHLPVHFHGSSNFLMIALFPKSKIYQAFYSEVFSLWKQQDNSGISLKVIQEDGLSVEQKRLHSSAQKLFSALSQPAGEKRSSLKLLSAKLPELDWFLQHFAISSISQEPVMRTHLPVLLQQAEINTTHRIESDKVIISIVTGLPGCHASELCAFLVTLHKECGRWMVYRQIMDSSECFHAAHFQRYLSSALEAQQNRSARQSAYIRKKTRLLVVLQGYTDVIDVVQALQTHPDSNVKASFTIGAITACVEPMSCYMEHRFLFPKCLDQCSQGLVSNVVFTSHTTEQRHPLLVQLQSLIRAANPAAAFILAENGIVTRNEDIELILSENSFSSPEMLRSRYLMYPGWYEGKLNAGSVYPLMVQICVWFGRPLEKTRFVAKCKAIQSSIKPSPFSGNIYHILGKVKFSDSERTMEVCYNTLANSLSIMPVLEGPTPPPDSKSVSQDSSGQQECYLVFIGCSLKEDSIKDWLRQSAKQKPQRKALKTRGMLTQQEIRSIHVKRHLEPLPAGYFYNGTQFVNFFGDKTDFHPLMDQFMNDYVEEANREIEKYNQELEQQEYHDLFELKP

B1: IFT74 (protein, UniProt Q96LB3 1-600)
chain: MASNHKSSAARPVSRGGVGLTGRPPSGIRPLSGNIRVATAMPPGTARPGSRGCPIGTGGVLSSQIKVAHRPVTQQGLTGMKTGTKGPQRQILDKSYYLGLLRSKISELTTEVNKLQKGIEMYNQENSVYLSYEKRAETLAVEIKELQGQLADYNMLVDKLNTNTEMEEVMNDYNMLKAQNDRETQSLDVIFTERQAKEKQIRSVEEEIEQEKQATDDIIKNMSFENQVKYLEMKTTNEKLLQELDTLQQQLDSQNMKKESLEAEIAHSQVKQEAVLLHEKLYELESHRDQMIAEDKSIGSPMEEREKLLKQIKDDNQEIASMERQLTDTKEKINQFIEEIRQLDMDLEEHQGEMNQKYKELKKREEHMDTFIETFEETKNQELKRKAQIEANIVALLEHCSRNINRIEQISSITNQELKMMQDDLNFKSTEVQKSQSTAQNLTSDIQRLQLDLQKMELLESKMTEEQHSLKSKIKQMTTDLEIYNDLPALKSSGEEKIKKLHQERMILSTHRNAFKKIMEKQNIEYEALKTQLQENETHSQLTNLERKWQHLEQNNFAMKEFIATKSQESDYQPIKKNVTKQIAEYNKTIVDALHSTSGN
B2: DNAI2 (protein, UniProt Q9GZS0 1-605)
chain: MEIVYVYVKKRSEFGKQCNFSDRQAELNIDIMPNPELAEQFVERNPVDTGIQCSISMSEHEANSERFEMETRGVNHVEGGWPKDVNPLELEQTIRFRKKVEKDENYVNAIMQLGSIMEHCIKQNNAIDIYEEYFNDEEAMEVMEEDPSAKTINVFRDPQEIKRAATHLSWHPDGNRKLAVAYSCLDFQRAPVGMSSDSYIWDLENPNKPELALKPSSPLVTLEFNPKDSHVLLGGCYNGQIACWDTRKGSLVAELSTIESSHRDPVYGTIWLQSKTGTECFSASTDGQVMWWDIRKMSEPTEVVILDITKKEQLENALGAISLEFESTLPTKFMVGTEQGIVISCNRKAKTSAEKIVCTFPGHHGPIYALQRNPFYPKNFLTVGDWTARIWSEDSRESSIMWTKYHMAYLTDAAWSPVRPTVFFTTRMDGTLDIWDFMFEQCDPTLSLKVCDEALFCLRVQDNGCLIACGSQLGTTTLLEVSPGLSTLQRNEKNVASSMFERETRREKILEARHREMRLKEKGKAEGRDEEQTDEELAVDLEALVSKAEEEFFDIIFAELKKKEADAIKLTPVPQQPSPEEDQVVEEGEEAAGEEGDEEVEEDLA
B3: IFT81 (protein, UniProt Q8WYA0 1-676)
chain: MSDQIKFIMDSLNKEPFRKNYNLITFDSLEPMQLLQVLSDVLAEIDPKQLVDIREEMPEQTAKRMLSLLGILKYKPSGNATDMSTFRQGLVIGSKPVIYPVLHWLLQRTNELKKRAYLARFLIKLEVPSEFLQDETVADTNKQYEELMEAFKTLHKEYEQLKISGFSTAEIRKDISAMEEEKDQLIKRVEHLKKRVETAQNHQWMLKIARQLRVEKEREEYLAQQKQEQKNQLFHAVQRLQRVQNQLKSMRQAAADAKPESLMKRLEEEIKFNLYMVTEKFPKELENKKKELHFLQKVVSEPAMGHSDLLELESKINEINTEINQLIEKKMMRNEPIEGKLSLYRQQASIISRKKEAKAEELQEAKEKLASLEREASVKRNQTREFDGTEVLKGDEFKRYVNKLRSKSTVFKKKHQIIAELKAEFGLLQRTEELLKQRHENIQQQLQTMEEKKGISGYSYTQEELERVSALKSEVDEMKGRTLDDMSEMVKKLYSLVSEKKSALASVIKELRQLRQKYQELTQECDEKKSQYDSCAAGLESNRSKLEQEVRRLREECLQEESRYHYTNCMIKNLEVQLRRATDEMKAYISSDQQEKRKAIREQYTKNTAEQENLGKKLREKQKVIRESHGPNMKQAKMWRDLEQLMECKKQCFLKQQSQTSIGQVIQEGGEDRLIL

What follows are binders tested against DNAAF9 (human Shulin), endogenous in human airway epithelial cells (human (endogenous in HAECs)) (UniProt Q5TEA3) (assay: co-IP).
With B1 the binding was “binds”.
With B2 the binding was “binds”.
For B3, the binding was “binds”.
